# Measured data: PubChem BioAssay AID1259424 (University of Nebraska Medical Center, 2018)
# Purpose: 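Seek colon cancer survival genes behaving like KSR1, using a six-gene signature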 (primary screen)
# Cells: human HCT116 colon cancer cells
# Knock-down reagent: siRNA pool against human genes, 50 nM
# Measurement: 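Six signature mRNAs by branched-DNA multiplex assay, scaled to two housekeeping genes and non-targeting median, log2; matched to mean KSR1 knockdown profile by Pearson correlation and euclidean distance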
# Scale: mean correlation with KSR1 profile and KSR1 correlation: higher = expression change more like KSR1 knockdown; mean distance from KSR1 profile: higher = expression change less like KSR1 knockdown
# This is one part, drawn at random, of about 14,000 deposited reagents. 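Higher correlation or smaller distance means closer resemblance to KSR1 loss; control wells, including KSR1 knockdowns, recur on many plates.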 Not stated in the record: the time to read-out.
target gene,mean correlation with KSR1 profile,mean distance from KSR1 profile,"KSR1 correlation, replicate 1","KSR1 correlation, replicate 2","KSR1 correlation, replicate 3"
SEMA4B (GeneID 10509),-0.171,4.06,0.037,-0.15,-0.428
NUDT22 (GeneID 84304),-0.0035,2.17,-0.19,-0.188,0.275
OR3A1 (GeneID 4994),0.817,1.99,0.814,0.751,0.841
RPL32 (GeneID 6161),0.097,1.47,0.165,-0.0474,0.638
TOMM22 (GeneID 56993),0.652,1.11,0.213,0.909,0.803
FKBP6 (GeneID 8468),-0.339,2.8,-0.139,-0.517,-0.544
DSN1 (GeneID 79980),0.275,1.72,0.307,0.461,0.124
ACTN4 (GeneID 81),-0.365,1.15,0.0384,-0.699,0.0862
UBASH3A (GeneID 53347),-0.0256,3.99,-0.0187,0.00237,-0.112
CSTF1 (GeneID 1477),-0.0188,1.56,-0.0143,0.139,-0.485
ZNF263 (GeneID 10127),-0.349,1.77,-0.224,-0.212,-0.838
CTSC (GeneID 1075),-0.00312,1.66,-0.476,0.407,0.458
MYH16 (GeneID 84176),0.211,4.71,-0.383,0.773,0.77
ABCB4 (GeneID 5244),0.19,1.85,0.645,-0.257,0.317

Entries listed so far whose gene name begins with A or a:
target gene,mean correlation with KSR1 profile,mean distance from KSR1 profile,"KSR1 correlation, replicate 1","KSR1 correlation, replicate 2","KSR1 correlation, replicate 3"
ACTN4 (GeneID 81),-0.365,1.15,0.0384,-0.699,0.0862
ABCB4 (GeneID 5244),0.19,1.85,0.645,-0.257,0.317

Next records follow:
target gene,mean correlation with KSR1 profile,mean distance from KSR1 profile,"KSR1 correlation, replicate 1","KSR1 correlation, replicate 2","KSR1 correlation, replicate 3"
TMEM258 (GeneID 746),-0.718,2.97,-0.452,-0.672,-0.714
CER1 (GeneID 9350),-0.238,0.969,-0.117,0.0986,-0.293
SHCBP1 (GeneID 79801),-0.101,2.87,-0.0335,0.226,-0.283
KMT2B (GeneID 9757),-0.429,2.72,-0.165,-0.0276,-0.514
F8 (GeneID 2157),0.513,2.02,0.504,0.424,0.647
GCHFR (GeneID 2644),-0.447,2.66,-0.527,-0.54,-0.434
TOP6BL (GeneID 79703),-0.385,2.27,-0.207,0.395,-0.649
ALS2 (GeneID 57679),0.46,1.07,0.36,0.542,0.492
CD300C (GeneID 10871),-0.745,1.99,-0.624,-0.7,-0.946
DCUN1D1 (GeneID 54165),-0.657,1.78,-0.371,-0.654,-0.52
EPM2A (GeneID 7957),-0.495,2.34,-0.357,-0.551,-0.586
MGAT1 (GeneID 4245),0.045,2.82,0.0422,-0.0685,0.0544
OR1A1 (GeneID 8383),0.297,2.8,0.545,0.278,0.345
ART4 (GeneID 420),0.165,2.28,0.447,0.365,0.155
DUOX2 (GeneID 50506),-0.548,4.42,-0.458,-0.608,-0.63
SPRTN (GeneID 83932),0.0059,1.85,-0.582,-0.0352,0.526
SGK3 (GeneID 23678),-0.439,2.09,0.121,-0.549,-0.832
SRSF8 (GeneID 10929),-0.0218,1.42,-0.0545,0.0292,-0.126
GOLGA2P5 (GeneID 55592),-0.519,2.62,-0.604,-0.0889,-0.677
ACO2 (GeneID 50),-0.409,3.57,-0.269,-0.37,-0.551
